No constants are given. Whether binding was seen depends on the method and setting. For part of these data: Binding seen in cells or lysates may run through a third protein. Some binding calls cover weakened binding; strength is not graded here. For part of these data: Where a sequence is shown, tags or fusion partners need not be part of it.
T1: GST-SMO^H8 (aa 543-559) (mouse) (UniProt P56726)
T1 sequence: KATLLIWRRTWCRLTGH

Amino acid sequences for entries named in this document (tags omitted). A change or cut given only in a name is not applied to a line headed by its entry. Residues count along the entry.
SMO^Ctail, yeast two-hybrid construct (P56726, residues 543-793): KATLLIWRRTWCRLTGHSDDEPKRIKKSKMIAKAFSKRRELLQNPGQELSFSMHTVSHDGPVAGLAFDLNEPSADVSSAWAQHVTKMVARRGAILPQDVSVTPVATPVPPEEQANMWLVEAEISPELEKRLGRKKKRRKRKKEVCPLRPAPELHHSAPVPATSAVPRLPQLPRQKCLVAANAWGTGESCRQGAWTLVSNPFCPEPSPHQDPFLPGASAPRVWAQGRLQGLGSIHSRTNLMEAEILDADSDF
SMO^Ctail with the first 10 amino acids deleted, yeast two-hybrid construct (P56726, residues 553-793): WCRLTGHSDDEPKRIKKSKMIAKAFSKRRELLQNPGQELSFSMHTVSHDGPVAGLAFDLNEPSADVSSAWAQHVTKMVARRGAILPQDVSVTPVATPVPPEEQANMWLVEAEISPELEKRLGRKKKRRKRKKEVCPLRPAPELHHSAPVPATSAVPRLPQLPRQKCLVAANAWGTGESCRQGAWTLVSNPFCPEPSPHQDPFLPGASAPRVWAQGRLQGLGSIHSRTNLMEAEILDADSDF

T2: BBS2^C (residues 324-712), yeast two-hybrid construct (UniProt Q9BXC9)
T2 sequence: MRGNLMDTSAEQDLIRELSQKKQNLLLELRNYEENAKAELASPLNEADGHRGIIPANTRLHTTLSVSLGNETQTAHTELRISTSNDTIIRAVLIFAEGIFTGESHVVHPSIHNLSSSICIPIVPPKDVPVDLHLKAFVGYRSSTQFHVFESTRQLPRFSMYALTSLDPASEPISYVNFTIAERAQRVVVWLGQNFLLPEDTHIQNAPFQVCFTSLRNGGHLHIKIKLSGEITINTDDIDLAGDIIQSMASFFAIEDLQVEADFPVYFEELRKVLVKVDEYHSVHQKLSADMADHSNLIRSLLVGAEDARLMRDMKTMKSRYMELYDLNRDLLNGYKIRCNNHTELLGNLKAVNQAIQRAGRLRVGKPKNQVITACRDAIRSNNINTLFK


What was measured:
[1] = molecular target: T1, GST-SMO^H8 (aa 543-559) (mouse); experiment: pull-down
[2] = molecular target: GST-SMO^Ctail (aa 543-793) (mouse) (UniProt P56726); experiment: pull-down
[3] = molecular target: SMO^Ctail, yeast two-hybrid construct (UniProt P56726); experiment: two-hybrid
[4] = molecular target: SMO^Ctail with the first 10 amino acids deleted, yeast two-hybrid construct (UniProt P56726); experiment: two-hybrid
[5] = molecular target: T2, BBS2^C (residues 324-712), yeast two-hybrid construct; experiment: two-hybrid

Row | Binder | binding [1] | binding [2] | binding [3] | binding [4] | binding [5]
1 | BBS7, in vitro translated, tagged with a 6xMyc epitope (protein, UniProt Q8IWZ6-2 1-672) MDLILNRMDYLQVGVTSQKTMKLIPASRHRATQKVVIGDHDGVVMCFGMKKGEAAAVFKTLPGPKIARLELGGVINTPQEKIFIAAASEIRGFTKRGKQFLSFETNLTESIKAMHISGSDLFLSASYIYNHYCDCKDQHYYLSGDKINDVICLPVERLSRITPVLACQDRVLRVLQGSDVMYAVEVPGPPTVLALHNGNGGDSGEDLLFGTSDGKLALIQITTSKPVRKWEIQNEKKRGGILCIDSFDIVGDGVKDLLVGRDDGMVEVYSFDNANEPVLRFDQMLSESVTSIQGGCVGKDSYDEIVVSTYSGWVTGLTTEPIHKESGPGEELKINQEMQNKISSLRNELEHLQYKVLQERENYQQSSQSSKAKSAVPSFGINDKFTLNKDDASYSLILEVQTAIDNVLIQSDVPIDLLDVDKNSAVVSFSSCDSESNDNFLLATYRCQADTTRLELKIRSIEGQYGTLQAYVTPRIQPKTCQVRQYHIKPLSLHQRTHFIDHDRPMNTLTLTGQFSFAEVHSWVVFCLPEVPEKPPAGECVTFYFQNTFLDTQLESTYRKGEGVFKSDNISTISILKDVLSKEATKRKINLNISYEINEVSVKHTLKLIHPKLEYQLLLAKKVQLIDALKELQIHEGNTNFLIPEYHCILEEADHLQEEYKKQPAHLERLYG | binds | binds |  |  | 
2 | BBS7^βprop (aa 1-332), in vitro translated, 6xMyc (domain or fragment, UniProt Q8IWZ6-2 1-332) MDLILNRMDYLQVGVTSQKTMKLIPASRHRATQKVVIGDHDGVVMCFGMKKGEAAAVFKTLPGPKIARLELGGVINTPQEKIFIAAASEIRGFTKRGKQFLSFETNLTESIKAMHISGSDLFLSASYIYNHYCDCKDQHYYLSGDKINDVICLPVERLSRITPVLACQDRVLRVLQGSDVMYAVEVPGPPTVLALHNGNGGDSGEDLLFGTSDGKLALIQITTSKPVRKWEIQNEKKRGGILCIDSFDIVGDGVKDLLVGRDDGMVEVYSFDNANEPVLRFDQMLSESVTSIQGGCVGKDSYDEIVVSTYSGWVTGLTTEPIHKESGPGEEL | binds |  |  |  | 
3 | BBS7^C (residues 326-672), yeast two-hybrid construct (domain or fragment, UniProt Q8IWZ6-2 326-672) SGPGEELKINQEMQNKISSLRNELEHLQYKVLQERENYQQSSQSSKAKSAVPSFGINDKFTLNKDDASYSLILEVQTAIDNVLIQSDVPIDLLDVDKNSAVVSFSSCDSESNDNFLLATYRCQADTTRLELKIRSIEGQYGTLQAYVTPRIQPKTCQVRQYHIKPLSLHQRTHFIDHDRPMNTLTLTGQFSFAEVHSWVVFCLPEVPEKPPAGECVTFYFQNTFLDTQLESTYRKGEGVFKSDNISTISILKDVLSKEATKRKINLNISYEINEVSVKHTLKLIHPKLEYQLLLAKKVQLIDALKELQIHEGNTNFLIPEYHCILEEADHLQEEYKKQPAHLERLYG |  |  | binds | no binding | binds

From doi:10.1101/2020.01.29.925610
